# Results as given in the supplement of paper PMC8728848.
# This is one part of the list.
# B1: Epa20 (Candida glabrata) (protein)
# chain: MGSSHHHHHHSSGLVPRGSHMASSNIPNNYPLGCSNKYSGHLPGLKMELYSYNYVNPRHPDPQNPGKLDQLYDPNLLGTYECFDSSYKDINYPRVGYKSKTLIGRSDGVSGILNFNFVPPWGCMPQKGQLPPAYNFKSNITLSNFTMILFGYFKPKISGNHIFSLHGDDLIYLNFGAGNAFDCCRQESSADNFGNYQAFSLWGINWEKKTLTVYLDMNTYYPIRIFYNNRDYQAIFNFSFKTEFDSSPVIDFQDYFFFLRDIDGGCPGEV
# How the values were obtained:
# Experiment in all cases: glycan array binding signal (z-score within array); higher = stronger binding
# Details in all cases: glycan notation: IUPAC condensed, linker removed
# [1] = target: Fuc(a1-2)[GalNAc(b1-3)]Gal
# How it was run: (§1)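 Arrays were curated from the Consortium for Functional Glycomics database, 3228 in total, and kept only where the protein sequence was available. Binding is expressed as a within-array Z-score. This score was averaged across arrays of the same protein sequence at different concentrations or buffers and across linkers, and negative values can be read as non-binding.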
# Fuc(a1-3)GlcNAc = target: Fuc(a1-3)GlcNAc
# How it was run: as §1
# [2] = target: Fuc(a1-3)[Gal(b1-4)]Glc6S
# How it was run: as §1
# [3] = target: Fuc(a1-3)[Gal(b1-4)]GlcNAc
# How it was run: as §1
# [4] = target: Fuc(a1-3)[Gal(b1-4)]GlcNAc(b1-2)Man
# How it was run: as §1
# [5] = target: Fuc(a1-3)[Gal(b1-4)]GlcNAc(b1-2)Man(a1-3)[Fuc(a1-3)[Gal(b1-4)]GlcNAc(b1-2)Man(a1-6)]Man(b1-4)GlcNAc(b1-4)GlcNAc
# How it was run: as §1
# [6] = target: Fuc(a1-3)[Gal(b1-4)]GlcNAc(b1-2)Man(a1-3)[Fuc(a1-3)[Gal(b1-4)]GlcNAc(b1-2)Man(a1-6)]Man(b1-4)GlcNAc(b1-4)[Fuc(a1-6)]GlcNAc
# How it was run: as §1
# [7] = target: Fuc(a1-3)[Gal(b1-4)]GlcNAc(b1-3)Gal(b1-3)[Fuc(a1-4)]GlcNAc
# How it was run: as §1
# [8] = target: Fuc(a1-3)[Gal(b1-4)]GlcNAc(b1-3)Gal(b1-4)[Fuc(a1-3)]GlcNAc
# How it was run: as §1
# [9] = target: Fuc(a1-3)[Gal(b1-4)]GlcNAc(b1-3)Gal(b1-4)[Fuc(a1-3)]GlcNAc(b1-3)Gal(b1-4)[Fuc(a1-3)]GlcNAc
# How it was run: as §1
# [10] = target: Fuc(a1-3)[Gal(b1-4)]GlcNAc(b1-3)GalNAc
# How it was run: as §1
# [11] = target: Fuc(a1-3)[Gal(b1-4)]GlcNAc(b1-6)GalNAc
# How it was run: as §1
# [12] = target: Fuc(a1-3)[Gal(b1-4)]GlcNAc(b1-6)[Gal(b1-3)GlcNAc(b1-3)]Gal(b1-4)Glc
# How it was run: as §1
# [13] = target: Fuc(a1-3)[Gal(b1-4)]GlcNAc6S
# How it was run: as §1
# [14] = target: Fuc(a1-3)[Gal3S(b1-4)]Glc
# How it was run: as §1
# [15] = target: Fuc(a1-3)[Gal3S(b1-4)]GlcNAc
# How it was run: as §1
# [16] = target: Fuc(a1-3)[Gal3S(b1-4)]GlcNAc6S
# How it was run: as §1
# [17] = target: Fuc(a1-3)[GalNAc(b1-4)]GlcNAc
# How it was run: as §1
# [18] = target: Fuc(a1-3)[GalNAc(b1-4)]GlcNAc6S
# How it was run: as §1
# Fuc(a1-4)GlcNAc = target: Fuc(a1-4)GlcNAc
# How it was run: as §1
# Fuc(b1-3)GlcNAc = target: Fuc(b1-3)GlcNAc
# How it was run: as §1
# Gal(a1-2)Gal = target: Gal(a1-2)Gal
# How it was run: as §1
# Gal(a1-3)Gal = target: Gal(a1-3)Gal
# How it was run: as §1
# Gal(a1-3)Gal(b1-3)GlcNAc = target: Gal(a1-3)Gal(b1-3)GlcNAc
# How it was run: as §1
# [19] = target: Gal(a1-3)Gal(b1-3)GlcNAc(b1-2)Man
# How it was run: as §1
# [20] = target: Gal(a1-3)Gal(b1-3)GlcNAc(b1-2)Man(a1-3)[Gal(a1-3)Gal(b1-3)GlcNAc(b1-2)Man(a1-6)]Man(b1-4)GlcNAc(b1-4)GlcNAc
# How it was run: as §1
# [21] = target: Gal(a1-3)Gal(b1-3)GlcNAc(b1-3)GalNAc
# How it was run: as §1
# [22] = target: Gal(a1-3)Gal(b1-3)GlcNAc(b1-6)GalNAc
# How it was run: as §1
# [23] = target: Gal(a1-3)Gal(b1-3)[Fuc(a1-4)]GlcNAc(b1-2)Man(a1-3)[Gal(a1-3)Gal(b1-3)[Fuc(a1-4)]GlcNAc(b1-2)Man(a1-6)]Man(b1-4)GlcNAc(b1-4)GlcNAc
# How it was run: as §1
# Gal(a1-3)Gal(b1-4)Glc = target: Gal(a1-3)Gal(b1-4)Glc
# How it was run: as §1
binder,measurement,setting,value
B1,glycan array binding signal (z-score),[1],-0.918
same,glycan array binding signal (z-score),Fuc(a1-3)GlcNAc,-0.482
same,glycan array binding signal (z-score),[2],1.12
same,glycan array binding signal (z-score),[3],-0.386
same,glycan array binding signal (z-score),[4],-0.472
same,glycan array binding signal (z-score),[5],-0.523
same,glycan array binding signal (z-score),[6],0.822
same,glycan array binding signal (z-score),[7],-0.196
same,glycan array binding signal (z-score),[8],1.11
same,glycan array binding signal (z-score),[9],-0.421
same,glycan array binding signal (z-score),[10],0.181
same,glycan array binding signal (z-score),[11],0.842
same,glycan array binding signal (z-score),[12],-0.524
same,glycan array binding signal (z-score),[13],0.648
same,glycan array binding signal (z-score),[14],0.057
same,glycan array binding signal (z-score),[15],-0.133
same,glycan array binding signal (z-score),[16],-0.007
same,glycan array binding signal (z-score),[17],-0.027
same,glycan array binding signal (z-score),[18],0.088
same,glycan array binding signal (z-score),Fuc(a1-4)GlcNAc,-0.229
same,glycan array binding signal (z-score),Fuc(b1-3)GlcNAc,-0.484
same,glycan array binding signal (z-score),Gal(a1-2)Gal,-0.842
same,glycan array binding signal (z-score),Gal(a1-3)Gal,-0.108
same,glycan array binding signal (z-score),Gal(a1-3)Gal(b1-3)GlcNAc,-0.275
same,glycan array binding signal (z-score),[19],-0.058
same,glycan array binding signal (z-score),[20],1.16
same,glycan array binding signal (z-score),[21],-0.255
same,glycan array binding signal (z-score),[22],0.223
same,glycan array binding signal (z-score),[23],0.604
same,glycan array binding signal (z-score),Gal(a1-3)Gal(b1-4)Glc,-0.396

# Exported tab-delimited: entries from further up
binder	measurement	setting	value
B1	glycan array binding signal (z-score)	[4]	-0.472
same	glycan array binding signal (z-score)	[8]	1.11
same	glycan array binding signal (z-score)	[11]	0.842
same	glycan array binding signal (z-score)	[12]	-0.524
same	glycan array binding signal (z-score)	[14]	0.057
same	glycan array binding signal (z-score)	[15]	-0.133
same	glycan array binding signal (z-score)	[16]	-0.007
same	glycan array binding signal (z-score)	Gal(a1-2)Gal	-0.842
same	glycan array binding signal (z-score)	[20]	1.16
